# Values joined by “and” are separate entries in the source; they are usually repeats but may differ in a detail not shown here. Equal values may be shown once. The whole screen tested about 220,000 compounds, of which about 2,400 (1.1%) were called active. Inconclusive means that the source gave no clear call. Such entries were picked first, then a sample of the others. The call rests on the fitted dose curve; in most records, active means well fitted inhibition curve with a large enough effect; inconclusive means small, poorly fitted or top-dose-only effect, or effect the other way; inactive means no such curve, though single readings can be large or run the other way. Potencies beside an inconclusive call are fits to weak or partial responses and may not hold up.
# Assay: qHTS Multiplex Assay to Identify Dual Action Probes in a Cell Model of Huntington: Aggregate Formation (GFP); further: nearly all actives have a fitted effect of over 60% in size
# Conditions: PC12 HttQ103-GFP aggregates, Acumen cytometry, 40 h; activity change, negative = inhibition: at 46.1 µM (top of the series) unless noted
# In short: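 PC12 cells with ecdysone-inducible HTT exon1 Q103-GFP, induced by 100 nM tebufenozide, given compounds in a concentration series. GFP aggregates (1–25 um, 6 SD above background) counted in lysates by laser-scanning cytometry, 488 nm excitation.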
# On the % scale 0 is the no-effect control and ±100 the full control effect; potency means the concentration at half of the fitted maximal effect.
Compound,Potency,"activity change, negative = inhibition"
O=C(NN1C(=O)/C(=C\c2cccnc2)SC1=S)C(c1ccccc1)c1ccccc1,"inconclusive: 3.55 µM [inhibitor, single point]",
OCCCn1c(-c2ccccc2)csc1=Nc1ccccc1,"inconclusive: 25.1 µM [inhibitor, single point]",
CCCc1ccc(S(=O)(=O)NCCc2ccncc2)cc1,"inconclusive: 7.94 µM [inhibitor, partial curve]",
O=C(Nc1ccc(C(F)(F)F)cc1Cl)c1ccc(Cn2cc(Br)cn2)o1,inactive,
Cc1ccc(-c2nc(C=Nc3ccc(O)cc3)c(O)o2)cc1,"inconclusive: 2 µM [activator, partial curve, poor fit]",
O=[N+]([O-])c1cccnc1N/N=C/c1ccccc1O,"inconclusive: 1.26 µM [inhibitor, full curve]",
CC(=O)Nc1nc2n(n1)C(c1ccc(F)cc1)C=C(c1ccccc1)N2 (centres undefined),"inconclusive: 12.6 µM [inhibitor, single point]",
CCC(=O)N1CCN(c2ccc(NC(=O)c3cc4ccccc4o3)cc2Cl)CC1,"inconclusive: 17.8 µM [inhibitor, single point]",
Oc1ccc(N=Nc2ccc3c(c2)OCCO3)c2cccnc12,"inconclusive: 1.78 µM [inhibitor, full curve]",
c1ccc(Cc2nnc3sc(-c4ccc5c(c4)OCCO5)nn23)cc1,inactive,
Cc1cccc(C)c1NC(=S)N(Cc1cccnc1)Cc1ccccc1Cl,"inconclusive: 3.16 µM [activator, single point]",
COc1ccc(S(=O)(=O)Nc2ccc(N3CCOCC3)cc2)cc1Br,inactive,
CCOC(=O)/C(C#N)=C\C=C1C=CN(C)C=C1,inactive,
COc1cc(C=O)ccc1OCc1ccccc1Br,"inconclusive: 35.5 µM [activator, single point]",
CN(C)/N=C/c1ccc(P(c2ccc(/C=N/N(C)C)o2)c2ccc(/C=N/N(C)C)o2)o1,"inconclusive: 31.6 µM [inhibitor, single point]",
CCN1CCN(C(=S)NCC2CCCO2)CC1 (centres undefined),inactive,
COc1ccc(OCc2nnc(SCC(=O)N3CCCc4ccccc43)n2-c2ccc(C)cc2)cc1,"inconclusive: 15.8 µM [inhibitor, single point]",
COC(=O)C1=C(C)N(c2cccc3ccccc23)C(=O)C1,"inconclusive: 12.6 µM [activator, single point]",
COc1ccc(C(=O)Oc2cccc(Nc3ncnc4ccccc34)c2)cc1OC,"inconclusive: 11.2 µM [inhibitor, partial curve]",
Cc1nn(C(C)(C)C)c(N)c1-c1ccccc1,inactive,
CCn1c(SCC(=O)N/N=C/C=C/c2ccco2)nc2ccccc21,"inconclusive: 10 µM [activator, partial curve]",
CCOc1cc(S(=O)(=O)NCc2ccncc2)ccc1Cl,"inconclusive: 1.12 µM [inhibitor, full curve]",
O=C(Nc1ccccc1N1CCOCC1)c1ccc(Cl)nc1,inactive,
CCn1c(=O)cc(OCC(=O)N(C)C2CCCCC2)c2ccccc21,inactive,
CC(C)(C)c1cc2cccnc2n1Cc1cccc(Cl)c1,"inconclusive: 20 µM [inhibitor, partial curve]",

# Two successive entries out of the list so far, for reference:
Compound,Potency,"activity change, negative = inhibition"
O=[N+]([O-])c1cccnc1N/N=C/c1ccccc1O,"inconclusive: 1.26 µM [inhibitor, full curve]",
CC(=O)Nc1nc2n(n1)C(c1ccc(F)cc1)C=C(c1ccccc1)N2 (centres undefined),"inconclusive: 12.6 µM [inhibitor, single point]",

# Reformatted with bars between the fields: part of the list above
Compound | Potency | activity change, negative = inhibition
CN(C)/N=C/c1ccc(P(c2ccc(/C=N/N(C)C)o2)c2ccc(/C=N/N(C)C)o2)o1 | inconclusive: 31.6 µM [inhibitor, single point] | 
CCN1CCN(C(=S)NCC2CCCO2)CC1 (centres undefined) | inactive | 

# The list goes on:

Compound,Potency,"activity change, negative = inhibition"
CC1=C(C(=O)Nc2ccccn2)C(c2cn(C)nc2C)C2=C(CCCC2=O)N1 (centres undefined),"inconclusive: 0.891 µM [activator, full curve, poor fit]",
C=CCn1c(NCCc2ccccc2)nc2c1c(=O)n(C)c(=O)n2C,active: 11.2 µM,
O=C1/C(=C/c2ccncc2)CCC/C1=C\c1ccncc1,"inconclusive: 35.5 µM [inhibitor, single point]",
COc1cc2c(cc1NC(=O)CN1CCN(S(=O)(=O)c3ccc(F)cc3)CC1)oc1ccccc12,"inconclusive: 0.355 µM [inhibitor, partial curve, poor fit]",
Oc1ccc(Br)cc1-c1cc(-c2ccc(Cl)cc2)n[nH]1,"inconclusive: 15.8 µM [inhibitor, single point]",
CCn1c(C)nc2cc(C(=O)N/N=C/c3cccc(OC)c3O)ccc21,active: 2 µM,
CC(=O)Nc1ccc(S(=O)(=O)N2CCN(CCC#N)CC2)cc1,inactive,
C=CCOc1ccc(Br)cc1/C=C1/SC(=Nc2ccc(C(=O)O)cc2)NC1=O,inactive,
COc1cccc2cc(-c3csc(CCn4nc(C)cc4C)n3)c(=O)oc12,"inconclusive: 35.5 µM [inhibitor, single point]",
Cc1ccc(NC(=O)C2CC(=O)N(Cc3ccco3)C2)cc1 (centres undefined),,inactive: -7.41% [at 9.22 µM]
COc1ccc(NC(=O)c2ccco2)cc1S(=O)(=O)N1CCOCC1,"inconclusive: 35.5 µM [activator, single point]",
CNC(=S)N/N=C(\C)c1ccc2c(c1)OCCO2,inactive,
COn1c2c(c3c4nonc4ccc31)CCCC2,"inconclusive: 8.91 µM [inhibitor, partial curve]",
COc1ccccc1NCC(=O)N/N=C/c1sccc1C,inactive,
Cc1cccc(C(=O)NNC(=O)c2ccc(Br)cc2)c1,,inactive: -21.8% [at 9.22 µM]
Cc1[nH]c2ccccc2c1C(=O)COC(=O)Cn1c(C(F)(F)F)nc2ccccc21,inactive,
CC1=CC(C)C2COC(c3ccc[n+](C)c3)C1C2C (centres undefined),inactive,
CCCCCOC(=O)C1C(c2ccccc2)C(C(=O)O)C1c1ccccc1 (centres undefined),inactive,
Cc1cc(/C=N/NC(=O)c2ccc(O)cc2)c(C)n1C1CC1,inactive,
COc1ccc(Cn2nc(-c3ccccc3)c(N3CCCCC3)cc2=O)cc1,"inconclusive: 25.1 µM [inhibitor, single point]",
CCOc1cc(CNCCc2ccc(S(N)(=O)=O)cc2)cc(Cl)c1OCc1ccccc1,"inconclusive: 14.1 µM [inhibitor, single point]",
Cc1ccc(OCC(=O)c2cc(C)c(C)cc2C)c([N+](=O)[O-])n1,"inconclusive: 35.5 µM [inhibitor, single point]",
CCn1c(-c2nn(-c3ccc(C)cc3)ccc2=O)n[nH]c1=S,"inconclusive: 8.91 µM [activator, partial curve, poor fit]",
O=C(NCCNc1ccc([N+](=O)[O-])cc1C(F)(F)F)c1ccccc1,"inconclusive: 1 µM [inhibitor, single point]",
S=c1[nH]nc(-c2ccccc2Cl)n1CC1CCCO1 (centres undefined),inactive,

Compound,Potency,"activity change, negative = inhibition"
Cc1cc(S(=O)(=O)N2CCN(c3c(C)cccc3C)CC2)ccc1F,"inconclusive: 2.82 µM [inhibitor, partial curve]",
Cc1noc(/C=C/c2cccs2)c1S(=O)(=O)N1CCC(C(=O)NCCCN2CCCC(C)C2)CC1 (centres undefined),"inconclusive: 3.55 µM [activator, single point]",
Cc1cccc(C)c1NC(=O)COC(=O)Cc1ccsc1,active: 20 µM,
O=C(Cn1nc2n(c1=O)-c1ccccc1SC2)N/N=C/c1ccncc1,,inactive: -2.18% [at 9.22 µM]
CC1CCC(C(C)C)C(OC(=O)Cn2c(-c3ccc(Br)cc3)[n+](C)c3ccccc32)C1 (centres undefined),"inconclusive: 5.62 µM [inhibitor, single point] and inconclusive: 35.5 µM [inhibitor, single point]",
O=C(O)C1CCCCN1S(=O)(=O)c1cccc2nsnc12 (centres undefined),"inconclusive: 2.82 µM [inhibitor, single point]",
CSc1nc(C)nc(N/C=C(\C#N)S(=O)(=O)c2ccccc2Cl)n1,,inactive: -0.315% [at 9.22 µM]
O=C(COc1ccccc1Cl)N(Cc1ccco1)C1CCS(=O)(=O)C1 (centres undefined),inactive,
COc1cc(C2CC(=O)N(c3ccc(C)cc3)C(=O)C2)cc(OC)c1OC,,inactive: -7.08% [at 9.22 µM]
C=CCOC(=O)/C(=C\c1ccccc1)NC(=O)c1ccco1,inactive,
CCNC(=S)NNC(=O)c1cc(-c2cccc(C)c2)nc2ccccc12,"inconclusive: 17.8 µM [inhibitor, single point]",
Cc1[nH]n(-c2ccccc2)c(=O)c1/C=N/NC(=O)c1ccoc1C,active: 7.08 µM,
Cc1cc(NC(=O)CN2CC(C)OC(C)C2)n(-c2nc3ccccc3s2)n1 (centres undefined),inactive,
O=C(NCCCN1CCOCC1)c1cc(-c2cccs2)on1,inactive,
Cc1ccc(C(=O)OCC(=O)NCc2ccco2)s1,"inconclusive: 2.82 µM [activator, single point]",
CC1CCCc2sc3nc(NCc4ccco4)n4ncnc4c3c21 (centres undefined),"inconclusive: 35.5 µM [inhibitor, single point]",
Cc1cccc(Oc2ncc(-c3ccc(Cl)cc3)cn2)c1,"inconclusive: 5.62 µM [inhibitor, single point]",
CC(C)Cc1nc(N2CCOCC2)c(C#N)c2c1CCC2,"inconclusive: 6.31 µM [inhibitor, partial curve]",
Cc1nc(N)nc(N)c1/C=C/C(C)(C)c1ccc(Cl)cc1,"inconclusive: 11.2 µM [inhibitor, single point]",
O=C(c1ccc(C23CC4CC(CC(C4)C2)C3)o1)N1CCOCC1,active: 5.62 µM,
CCN1CCN(c2nc(Nc3ccc(C)c(C)c3)nc(N)c2[N+](=O)[O-])CC1,"inconclusive: 8.91 µM [activator, partial curve]",
CCOC(=O)c1sc(NCC2CCCO2)nc1C (centres undefined),"inconclusive: 3.98 µM [activator, single point]",
N#Cc1cnc2c(-c3ccccc3)c(-c3ccccc3)nn2c1N,"inconclusive: 10 µM [inhibitor, single point]",
CC(=O)Oc1cccc(N2C(=O)C3C4C=CC(C4=C(C)C)C3C2=O)c1 (centres undefined),"inconclusive: 1.58 µM [inhibitor, partial curve]",

# Reference: PubChem BioAssay AID1688 (National Center for Advancing Translational Sciences (NCATS), 2009)
